This is one part of the list. These are further read-outs of the screen, such as a control signal, another cell line or another target. No call is given for them. Compounds called inactive in the main read-out are mostly missing here. Words in brackets tell the shape of the fitted curve; partial curves, single points and poor fits give uncertain potencies.
Assay: qHTS Assay for Lipid Storage Modulators in Drosophila S3 Cells;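 as to cell number change: cells counted by Cell Tracker Red CMTPX staining in the red channel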
Conditions: BODIPY lipid droplet fluorescence, 18-24 h; for cell number change: measured here: cell count max response, cells fed with added oleic acid
Method in brief: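 Drosophila S3 cells loaded with oleic acid (400 uM, as added) and compounds at several concentrations; lipid droplets imaged by 488-nm laser-scanning cytometry, 500–530 nm intensity and object ratio to cell channel. Percent activity normalized to 20 uM Triacsin C.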

[1] = measured here: lipid fluorescence (Fed channel) AC50, cells fed with added oleic acid
[2] = measured here: cell number channel AC50, cells fed with added oleic acid

SMILES: Cc1cc(C)n(CC(O)COc2ccc(Cl)cc2Cl)n1 (stereo unspecified)
- cell number change: 3.24%
- AC50 [1]: 29.1 µM [rising, single point]

SMILES: Cc1ccc(NC(=O)c2nccnc2C(=O)O)cc1C
- cell number change: -39.4%
- AC50 [2]: 36.6 µM [falling, partial curve, poor fit]
- AC50 [1]: 3.66 µM [falling, partial curve]

SMILES: Cc1ccc(S(=O)(=O)NC(=O)Nc2cc(C)on2)cc1
- cell number change: 36.9%
- AC50 [2]: 1.46 µM [falling, partial curve]

SMILES: O=C(O)c1ccc2c(c1)ncn2C1CCCCC1
- cell number change: -30.2%
- AC50 [2]: 0.731 µM [falling, full curve]
- AC50 [1]: 0.731 µM [falling, full curve]

SMILES: CCCCNC(=O)C(=O)N/N=C/c1cccc(Br)c1
- cell number change: 20.5%

SMILES: Cc1ccc(CN2C(=O)C(C)Nc3ncnc(N4CCOCC4)c32)cc1 (stereo unspecified)
- cell number change: -24.6%
- AC50 [1]: 1.84 µM [falling, partial curve, poor fit]

SMILES: O=C(O)c1ccccc1OCCOc1ccccc1C(=O)O
- cell number change: -188%
- AC50 [2]: 0.116 µM [falling, full curve, poor fit]
- AC50 [1]: 5.8 µM [falling, partial curve]

SMILES: CC(=O)c1ccc(OCC(=O)c2cc(C)n(-c3ccc4c(c3)OCO4)c2C)cc1
- cell number change: -7.38%
- AC50 [1]: 8.2 µM [rising, partial curve]

SMILES: c1ccc(COc2ccccc2CNCc2cccnc2)cc1
- AC50 [2]: 6.51 µM [rising, single point]

SMILES: COc1ccc(-c2cc(C(=O)Nc3cccnc3Cl)no2)cc1
- cell number change: 40.2%
- AC50 [2]: 36.6 µM [rising, partial curve, poor fit]

SMILES: CCN1C(Nc2ccccc2)=NC[C@@H]1CC(C)C
- cell number change: 15%

SMILES: CCC(C)N(C(=O)Cn1nnc(-c2ccc(Cl)cc2)n1)C1CCS(=O)(=O)C1 (stereo unspecified)
- cell number change: -8.44%

SMILES: COc1ccccc1N1C(=O)C2C(C(=O)c3ccccc3)=NN(c3ccc(C)cc3)C2C1=O (stereo unspecified)
- cell number change: -5.23%
- AC50 [1]: 0.146 µM [falling, full curve, poor fit]

SMILES: O=C(CCN1CCCCO1)N1CCCC(Nc2ccc(F)c(F)c2)C1 (stereo unspecified)
- cell number change: -16.1%
- AC50 [1]: 0.116 µM [falling, full curve]

SMILES: NC(=S)Cc1ccc(Cl)cc1Cl
- cell number change: 12.5%
- AC50 [1]: 2.31 µM [rising, single point]

SMILES: COCCN1CSC(=S)N(Cc2ccco2)C1
- cell number change: -19.7%

SMILES: NC(=O)C1CCN(Cc2nc(-c3cccs3)no2)CC1
- cell number change: -28.3%
- AC50 [2]: 0.0058 µM [falling, full curve, poor fit]
- AC50 [1]: 0.731 µM [falling, full curve]

SMILES: NC(=O)C(=O)N/N=C/c1c(F)c(F)c(F)c(F)c1F
- cell number change: -1.19%
- AC50 [2]: 6.51 µM [rising, single point]
- AC50 [1]: 8.2 µM [falling, partial curve]

SMILES: COc1ccc(Nc2nnc(-c3ccc(C(=O)NCCO)cc3)c3ccccc23)cc1
- cell number change: -33.4%

SMILES: COc1ccc(CCNC(=O)COC(=O)c2ccc(Br)o2)cc1
- cell number change: 10.4%

SMILES: Cc1cc2c(c(=O)n1Cc1ccccn1)C(c1ccc3c(c1)OCO3)C(C#N)=C(N)O2 (stereo unspecified)
- cell number change: -11.1%
- AC50 [1]: 0.259 µM [rising, full curve]

SMILES: CC(C)(C)c1cc(NC(=O)CSc2nncs2)n(-c2ccccc2)n1
- cell number change: 17.7%

SMILES: Cc1ccc(S(=O)(=O)N2CCN(CC(O)c3ccccc3)CC2)cc1 (stereo unspecified)
- cell number change: -111%
- AC50 [2]: 23.1 µM [falling, single point]

SMILES: N#CC(C(=O)c1ccc(S(=O)(=O)N2CCCCCC2)cc1)c1nc2ccccc2[nH]1 (stereo unspecified)
- cell number change: -30.1%
- AC50 [2]: 29.1 µM [falling, single point]

SMILES: CC1(C)N=C(N)NC(Nc2cccc(Br)c2)=N1
- cell number change: -41.7%
- AC50 [2]: 0.92 µM [falling, full curve]
- AC50 [1]: 16.4 µM [falling, partial curve]

SMILES: CC(=O)NCC(=O)NC1(C(=O)NC2CCCC2)CCCCC1
- cell number change: -20.6%
- AC50 [2]: 6.51 µM [falling, single point]

SMILES: COC(=O)C1=C(NC(=O)c2ccc(C)c(C)c2)CCS1
- cell number change: -17.2%
- AC50 [1]: 29.1 µM [rising, single point]

SMILES: Cc1cc2nc(-c3cccc(NC(=O)c4ccc(Br)o4)c3)oc2cc1C
- AC50 [1]: 0.651 µM [falling, single point]

SMILES: NC(=O)C1(S(=O)(=O)c2ccccc2)CCCCC1
- cell number change: -13.3%

SMILES: CCCCc1nc2ccccc2c(=O)n1NC(=O)c1c(O)c2cccc3c2n(c1=O)CC3
- cell number change: 3.31%

SMILES: COc1ccc(C(=O)Nc2ccc(Br)cn2)cc1S(=O)(=O)N1CCOCC1
- cell number change: -8.68%
- AC50 [1]: 29.1 µM [rising, single point]

SMILES: Cc1ccc(C(=O)NCCCN2CCOCC2)c(C)c1
- cell number change: -2.12%
- AC50 [1]: 0.58 µM [falling, single point]

SMILES: COc1cc(C=O)ccc1OCCCCOc1ccccc1[N+](=O)[O-]
- cell number change: 19.2%
- AC50 [1]: 7.31 µM [rising, full curve, poor fit]

SMILES: COc1ccc(N=C2SCC(c3ccc([N+](=O)[O-])cc3)=NN2CCO)cc1
- cell number change: -0.727%
- AC50 [2]: 0.461 µM [falling, single point]
- AC50 [1]: 0.461 µM [falling, single point]

SMILES: CC(=O)N1CCC(N(CCN2CCOCC2)C(=S)Nc2cccc(C)c2)CC1
- cell number change: -3.95%
- AC50 [1]: 4.61 µM [falling, full curve, poor fit]

SMILES: CCOc1cc(N2CCOCC2)c(OCC)cc1NC(=O)COC(=O)/C=C/c1ccc(OC(F)F)cc1
- cell number change: 11.8%

SMILES: COc1cccc(Nc2nc3cc(OC)ccc3cc2C#N)c1
- cell number change: 79.6%
- AC50 [2]: 13 µM [rising, partial curve]
- AC50 [1]: 4.11 µM [rising, partial curve]

SMILES: C/C=C\C=C/C(=O)Nc1cccc(C2=NOC3(C2)C[C@@H](C(N)=O)N(C(=O)/C=C/C=C\C)C3)c1 (stereo partly specified)
- cell number change: 17.6%
- AC50 [1]: 29.1 µM [rising, single point]

SMILES: C=C(C)Cn1c(SCC(=O)N/N=C/c2cccc(O)c2)nc2ccccc2c1=O
- AC50 [1]: 0.0058 µM [falling, full curve, poor fit]

SMILES: COc1cc2c(cc1OC)C(c1ccccc1N)=NCC2
- cell number change: 15.9%
- AC50 [2]: 5.8 µM [falling, single point]
- AC50 [1]: 4.61 µM [falling, single point]

— PubChem BioAssay AID2685 (National Center for Advancing Translational Sciences (NCATS), 2010)
